# Measurements taken from patent publication US11091786B2 (Nanyang Technological University, priority 2015, dated 2021).
# Experiment: general procedure: Fmoc solid-phase peptide synthesis; rink-amide-MBHA resin (0.7 mmol/g) for Fmoc; MBHA resin (1.03 mmol/g) for Boc thiodepsipeptides; PyBOP/DIEA; DIC/HOBT/DMAP for ester coupling
# Conditions: conjugation step
substance,measurement,value
(Ac-RYRLNRIβA)8K4K2KY,conjugation yield,>85%
